# Measured values from PMC12040169 (PLOS Biology, 2025).
# The list shows a part of the results.
# Tested on: T1, CTL2-GFP (C. trachomatis L2/434/Bu, GFP-expressing)
# T1 construct: L2/434/Bu, GFP-expressing
# Parameters: species or system HeLa; Intracellular C. trachomatis growth in HeLa cells, bulk GFP fluorescence relative to DMSO
# Settings: bulk GFP, single well; 28.5 h, 10 µM; inhibitor
row,Structure (SMILES),% of control remaining
1,CCCC(=O)c1ccc(S(=O)(=O)N2CCCN(Cc3cc(Br)cs3)CC2)cc1 [CBK062896],90.4916%
2,CC(O)CN(Cc1ccc(-c2ccccc2)cc1)Cc1ccc2c(c1)OCO2 (stereo not shown) [CBK286450],114.505%
3,COc1cccc2sc(Nc3nc(-c4cccs4)cs3)nc12 [CBK287469],77.3664%
4,O=C(CN(c1ccc(I)cc1)S(=O)(=O)c1ccccc1)NCC1CCCO1 (stereo not shown) [CBK266278],150.511%
5,CCN(CCO)c1ccc(Nc2nc(-c3ccc(F)c(Cl)c3)cn3ccnc23)cc1 [CBK038042],157.747%
6,O=C(c1ncoc1-c1ccc(F)cc1)N1CCSCC1 [CBK282380],145.137%
7,COc1cc(S(=O)(=O)NC2CC(C)(C)NC(C)(C)C2)ccc1Br [CBK267908],127.126%
8,O=C1N=C(NC23CC4CC(CC(C4)C2)C3)OC1c1ccccc1 (stereo not shown) [CBK105263],44.0291%
9,CCCNC(C)C(=O)Nc1c(C)csc1C(=O)O (stereo not shown) [CBK287064],129.09%
10,Cn1c(=O)c2c(nc(SCC(=O)O)n2C)n(C)c1=O [CBK262942],135.876%
11,OCCCN1CCCN(c2ccnc(OCCN3CCOCC3)n2)CC1 [CBK083808],118.869%
12,CC(C)NC(=O)N1CCN2C(=O)N(c3ccccc3)C(=O)[C@@H]2C1 [CBK289579],116.821%
13,CSc1nsc(SCC(=O)c2ccc(NC(C)=O)cc2)n1 [CBK268755],131.275%
14,Cc1c(CN(C)C(=O)c2cccc(NC(=O)C3CCCO3)c2)cnn1C (stereo not shown) [CBK305416],82.1694%
15,C=CCOc1ccc(Cl)cc1CNc1cccc(C(=O)O)c1 [CBK078460],113.889%
16,CC(C(=O)Nc1cccc(F)c1)N1CCN(Cc2cccnc2)CC1 (stereo not shown) [CBK305408],108.62%
17,COc1cc(CN2CCN(C(=O)c3cccc(Cl)c3)CC2)cc(OC)c1OC [CBK074530],87.5358%
18,C/C(=N\NC(=O)CN(c1ccc(C)cc1)S(=O)(=O)c1ccccc1)c1ccc(Cl)cc1 [CBK262229],123.581%
19,O=c1[nH]c2ncc(-c3cccc(Br)c3)nc2n1CCc1cccnc1 [CBK064457],92.6084%
20,COc1cccc(CN2CCCC(NC(=O)c3cnn(C(C)C)c3)C2)c1 (stereo not shown) [CBK307477],122.728%
21,COc1cc(OC)c(NS(=O)(=O)c2cc(C(=O)O)ccc2C)cc1Cl [CBK296105],115.861%
22,O=C(c1cnn(-c2cccc(Cl)c2)c1)N1CCOCC1CC(F)F (stereo not shown) [CBK304207],96.5012%

# From entry 21 up to 22, as listed above:
row,Structure (SMILES),% of control remaining
21,COc1cc(OC)c(NS(=O)(=O)c2cc(C(=O)O)ccc2C)cc1Cl [CBK296105],115.861%
22,O=C(c1cnn(-c2cccc(Cl)c2)c1)N1CCOCC1CC(F)F (stereo not shown) [CBK304207],96.5012%
